# Reference: patent publication US11767289B2, “Methods and compositions for pest control” (VMI Foundation, priority 2010, dated 2023)
# How the values were obtained:
# [1] = system: Megalomyrmex modestus males; test: GC-MS of methanol extracts of winged males (male tyramides); conditions: collection RMMA030812-01
# [2] = system: Megalomyrmex mondabora males; test: as above; conditions: collection RMMA030729-12
# Monomorium minimum males = test: GC-MS analysis of male ant extracts for tyramides; conditions: M. minimum males trisected into heads, thoraxes, gasters
# [3] = system: Megalomyrmex wetterei males; test: GC-MS of methanol extracts of winged males (male tyramides); conditions: collection RMMA010330-01
Compound,"Tyramides, relative ratios of the compounds [1]","Tyramides, relative ratios of the compounds [2]",body part in which the compounds occur (trisection) (Monomorium minimum males),"Tyramides, relative ratios of the compounds [3]"
"CCCC(=O)NCCc1ccc(O)cc1 [Compound 3, N-[2-(4-hydroxyphenyl)ethyl]butanamide]",1.5,9,occurred in the gaster of the ants,2
"CCCCCC(=O)NCCc1ccc(O)cc1 [Compound 6, N-[2-(4-hydroxyphenyl)ethyl]hexanamide]",1,1,–,1
"CC(C)CC(=O)C(=O)NCCc1ccc(O)cc1 [Compound 7c, N-[2-(4-Hydroxyphenyl)ethyl]-4-methyl-2-oxopentanamide]",–,–,occurred in the gaster of the ants,–
